In the supplement of paper PMC3334620:
The full ranking holds about 33,000 sequences; the median of “E-score (-0.5 to 0.5)” is about -0.015, and the highest 2% start at about 0.3. The list shows a part of the results.

What follows are sequences tested against T1, Abf1 (UniProt P14164) (assay: PBM E-score (8-mer binding enrichment) (E-score (-0.5 to 0.5)); higher = stronger / more preferred TF binding). Conditions: protein concentration: 200 nM; construct: GST-full length.
T1 sequence: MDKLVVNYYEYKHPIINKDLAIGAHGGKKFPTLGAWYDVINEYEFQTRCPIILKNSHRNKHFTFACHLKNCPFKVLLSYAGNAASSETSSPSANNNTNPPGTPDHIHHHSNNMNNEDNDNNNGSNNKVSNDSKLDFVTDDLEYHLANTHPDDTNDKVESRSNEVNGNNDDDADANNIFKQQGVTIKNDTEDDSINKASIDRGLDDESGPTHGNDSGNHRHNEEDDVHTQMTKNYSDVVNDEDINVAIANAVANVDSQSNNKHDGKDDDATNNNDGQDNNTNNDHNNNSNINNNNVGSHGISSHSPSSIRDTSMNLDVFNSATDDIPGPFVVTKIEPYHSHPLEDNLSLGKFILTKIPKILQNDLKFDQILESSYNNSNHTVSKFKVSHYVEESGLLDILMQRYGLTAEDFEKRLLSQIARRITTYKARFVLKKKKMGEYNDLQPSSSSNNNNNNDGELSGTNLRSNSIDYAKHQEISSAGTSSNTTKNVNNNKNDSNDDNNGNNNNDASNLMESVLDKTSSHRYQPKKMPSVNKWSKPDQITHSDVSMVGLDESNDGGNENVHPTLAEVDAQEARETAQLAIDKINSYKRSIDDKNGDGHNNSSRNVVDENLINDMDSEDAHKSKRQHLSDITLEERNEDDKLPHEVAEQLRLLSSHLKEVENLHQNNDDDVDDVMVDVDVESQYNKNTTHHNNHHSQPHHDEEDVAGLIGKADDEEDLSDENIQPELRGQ
Method in brief: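 Masliner-normalised scans of fluorescent anti-GST signal were the basis for scoring. That signal came from GST-tagged yeast transcription factors applied at about 100-200 nM to double-stranded universal all-10-mer Agilent arrays on fresh or once-stripped slides. Each ungapped eight-base word, pooled with its reverse complement, received an E-score from the Universal PBM Analysis Suite.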

Sequence	PBM E-score
ACGAATAG	0.0375
CCAGTAGG	-0.0764
TATTACCA	-0.0039
CAGTACCC	-0.0706
ACCCACTG	-0.119
GGCGTTCA	0.0017
ACCTAAAA	-0.169
ACTCTTAT	0.112
TATACAGA	0.0923
CGCATACA	-0.0105
GCGGTAGA	-0.139
GACCGTTA	0.19
CATCGCAC	0.15
TCAGGACA	0.156
CGCGTCTC	0.047
GCATGAAC	-0.0757
GCGGAATA	-0.105
CGGCGTTC	-0.0709
CCTGGTAA	-0.0473
ATTGATAA	0.27
CCTAGTAG	-0.114
CCCGACGA	0.196
CACCATGC	-0.175
GAGTTTTA	0.0253
AGCACAAA	0.0191

Sequence	PBM E-score
ACCATCGT	0.0143
CAGATGGG	-0.114
CAAGACGG	0.0238
ACCGAATA	-0.0212
GTCCCGGA	-0.0327
GCACGCAC	0.0219
AACGGGAG	-0.00676
TCACGCGA	0.205
CCCCTTAA	-0.237
TCTCGGCA	-0.204
ACACATAA	0.0214
CCTCGAGA	-0.0603
ACCTCACT	0.173
ACACGTAG	0.0977
TAGACGGA	0.122
AAGCTGCT	-0.165
GAGCTTTA	0.111
GCGGGACC	-0.214
CGTAGCAA	0.265
CGGTAGGC	-0.0138
GTGGCTTA	-0.154
CGCAGTCC	-0.202
GAGGCTTA	-0.159
CTTCCAAC	-0.16
TTTTAAAA	0.0597

Sequence	PBM E-score
AGTGTACA	0.0412
AGGGGAGA	-0.2
AGGAGAGA	-0.0544
GAGACTCC	0.00659
CGCTGTCC	0.108
CAAAAGTG	-0.12
CGAAAGTC	-0.0339
AAAGAGTG	-0.101
CACTGCGC	-0.134
AGTAAAAG	0.0975
GTCCACTA	-0.101
GTCAAGTA	-0.221
ATTGCGAA	-0.152
AGTCGGTA	-0.0267
AACCCAGG	-0.216
GGTGGTAA	0.0494
ACTCTACC	-0.0571
TGGAAGAA	-0.0974
ATCATGCC	0.177
ACCATGTG	-0.0211
TCCCATCA	-0.102
AAAGCGTC	-0.0654
ATAATTAG	0.0579
TATGGTAA	0.0129
GGCATGTA	-0.0593

Sequence	PBM E-score
GCGTGGAA	-0.105
GTACAAAC	0.135
AACGAGTC	0.0142
AGCATTGG	-0.299
AGCCTCGC	-0.199
CATAACCA	0.105
ATTAGTGA	0.365
GTGAGTCA	0.0794
CATCCACC	-0.0205
GTAAGAAA	0.176
CCAGACCG	-0.0908
AAAGTACT	-0.0068
CCCACAGC	-0.163
AGCCCGGC	-0.214
GCTCTACC	-0.218
AAAAAGAA	0.049
AGTATCCC	-0.204
AACATTGT	-0.0553
TCTCTGAA	-0.138
AATGAAAT	0.166
AACTCGGT	0.019
AATTACGG	0.111
ATAGAATC	-0.00784
ACATGATG	0.119
GTTTTTAA	0.238

Quoted from the listing.
For PBM E-score, TCTCTGAA shows -0.138
For PBM E-score, AATTACGG shows 0.111
For PBM E-score, ATAGAATC shows -0.00784
For PBM E-score, GTGAGTCA shows 0.0794
For PBM E-score, AGCCTCGC shows -0.199
For PBM E-score, GTTTTTAA shows 0.238
For PBM E-score, CATAACCA shows 0.105

Next results follow.

Sequence	PBM E-score
ACCGTCGG	0.157
ATCGCCGG	-0.0123
GCTCCACC	-0.139
ACCCCTCG	-0.17
AGCTCAAC	-0.0887
AGTGACTG	0.175
AACCCATA	0.0578
AGTGCTGC	-0.0615
CAGTTATC	0.0477
AAACTCTA	-0.144
CAGGTTAA	-0.0709
CTATGAGA	0.0357
AAAATCTA	0.191
ATGATGGC	-0.086
AGCTACAA	-0.101
ACGAGAGA	0.107
GATGCTAC	0.16
CCCGTGCC	0.0054
AAAATAGA	-0.0017
ATTCAGTC	0.0493
AAATCACA	0.0176
AGCGGCCA	-0.282
CGATCCCC	-0.144
CAGATAAG	0.0645
GGTATTCA	0.151

Sequence	PBM E-score
AGCACTCC	-0.0214
CACCTGTC	-0.0762
ACAGGGCA	-0.0566
GTCTTATA	0.107
CCCGCTGC	-0.1
CGCGCTGC	-0.165
GCGCTGCA	-0.0823
GTCCCGCA	-0.082
CTGGAACA	0.0661
GACTCACA	0.0366
CTGAACAG	-0.101
AGTCACTC	0.232
AGTTGATA	0.188
CTCGATCA	-0.00993
ACGCGAAA	-0.0249
AGCTAAAC	-0.208
CGTCCTCC	0.0156
CGTTATGA	0.0508
AAAACTGT	0.0603
AAACTTAC	0.0825
ATCTAGTC	0.0446
GACGCTAA	-0.0862
GCACTGCA	-0.00608
ATGGGATC	-0.0255
CCCCACCA	-0.17

Sequence	PBM E-score
AGAGTCGA	-0.127
CTGACGAA	0.239
ACGGTCCC	0.181
AGCAAACC	-0.00608
GCCGGCTA	-0.138
CGGTCACG	0.164
ATATCCCC	-0.0828
GGGTCACC	-0.0595
AGCGGGAG	-0.192
CAGATCGC	0.0919
AGCAGCTC	-0.112
ATGGGTCC	-0.0928
AGGGCTAC	-0.279
GCACGCTA	-0.0704
CTTGGTCA	-0.0485
GCGGAAGA	0.0169
CGCTCATC	0.13
ACAGCTAA	-0.159
ATTAGGTG	0.0471
ACCTGGTA	-0.0202
GAACAAGC	-0.139
ATCATTAG	0.279
